The list shows a part of the results.
B1: il2ra_site1_3nfp_normal_mot_HHH_b2_02053_000000240_0001_1_20_H_._HHH_b2_04625_af2_0001_0000400056_0000001_0_af2pred_0001_af2pred (protein)
chain: SSSSSDSVRRAAELSRRIQELLREGNPEEAEELIRELEELAKKHNDPAAKLLVKRLEKLLSSSSS
B2: il2ra_site1_3nfp_sap_16_mot_HHH_b1_00821_000000039_0001_1_20_H_._HHH_b1_08092_af2_0001_0000600017_0000001_1_0001 (protein)
chain: SANKYAVELALRSGDFEAALRLLERAAKSFGDPKFEEIVEEAKELLERGVPPEEVARILEELLER
B3: il2ra_site2_2erj_sap_21_mot_HHH_b1_04373_af2_000000118_0001_18_33_H_._HHH_b2_06097_af2_0001_0000400031_0000001_0_0001_af2pred_0001_af2pred (protein)
chain: SSSSDAHELFKLARLAEELLLRGDKEEAEEVIEKLRELAEELNNKAARQALRILEELLEELSSSS
B4: il2ra_site2_2erj_normal_mot_HHH_b1_03107_000000098_0001_39_52_H_._HHH_b2_01132_0001_0000100001_0000001_0 (protein)
chain: SSSSSDVREIWEEVARLLAEAAHIKDPEEVRKLLEEAERLAEEANSPYLERYVEFARRDASSSSS
B5: il2ra_site1_3nfp_normal_mot_HHH_b1_00678_af2_000000150_0001_43_56_H_._HHH_b1_08381_0001_0000700044_0000001_0 (protein)
chain: SSSSTEVERRVLELIKEALRLKREGDPEQAREILEEALEIARENNDRIAARLLEDALRLLNSSSS
B6: il2ra_site2_3nfp_sap_16_mot_HHH_b1_06174_af2_000000017_0001_40_57_H_._6048afb1487e1bae81da528158059565_0001_af2_0001_0000600031_0000001_0_0001 (protein)
chain: SSSSSEAEEYIKTALELAKRTPDPEIARRMVELALLAARSNQDEELEREAEELRQEIENSSSSSS
B7: il2ra_site1_2b5i_sap_15_mot_HHH_b2_04274_000000042_0001_1_19_H_._HHH_b1_02492_0001_0000200010_0000001_0_0001_af2pred_0001_af2pred_1 (protein)
chain: SSSSSDFHEILELYREASELFRRGDPEEARKVLEKALELAEELGDERIRRELERLLELLKSSSSS
B8: il2ra_site1_3nfp_sap_24_mot_HHH_b1_05128_000000175_0001_22_38_H_._HHH_b1_08248_0001_0000200014_0000001_0_0001 (protein)
chain: SLEEKLEEILKQYLPPVEVRALLRLVEQARRSANVPPEEAVRLLIELLKRLGNPELAEILEEALR
B9: il2ra_site2_2erj_normal_mot_ems_3hM_1508_000000265_0001_1_20_H_._HHH_b2_01938_af2_0001_0000400031_0000001_0 (protein)
chain: SSSSSDVEERVLELLQEALRVQDEEEFRELLEEAKRLAEELGDEELRLMIEVLEEYFERLSSSSS
B10: il2ra_site1_3nfp_normal_mot_c3f6a624e0b36238ad1b06fe81c08c0c_0001_1_af2_000000203_0001_51_65_H_._c99de99df9ecc9fdd090aa5ad7eabf9c_0001_af2_0001_0000200012_00000 … (protein)
chain: SAAEIAIRWAVERNNPKLVKKLLEQIERHLRRGNPAAKEAIELLEELLEELGNEELLEEVEKVRK
B11: il2ra_site1_2b5i_normal_mot_HHH_b2_04910_000000118_0001_1_19_H_._HHH_b2_07197_af2_0001_0000200006_0000001_0_af2pred_dldesign_0_af2pred (protein)
chain: SSSSSPGEEARRLFLRFDEAYKAGDEAAVARLAAELRRLAEEKKCGIARKNLAVAQRFLGSSSSS
B12: il2ra_site2_2erj_sap_26_mot_HHH_b1_03572_af2_000000146_0001_41_56_H_._HHH_b1_08564_0001_0000100011_0000001_0_0001 (protein)
chain: SSSSSDVEERVLELIARAAEIKDPEEVRRLLEEALELAEENNDELLERYVELSLREAEKSSSSSS
B13: il2ra_site1_1z92_normal_mot_01209686ea234b34325f918445e6eade_0001_af2_000000154_0001_18_33_H_._8f8e71037d2208c0bcbb37bb3b3df6f7_0001_0001_0000600019_0000001_0_a … (protein)
chain: SEEELEELIEELEKAPDPDERAAAYDLKHALEQGIPPEAVLRAVIRNLEAAGNPEVAKKLQEILK
B14: il2ra_site2_2erj_normal_mot_HHH_b2_04478_af2_000000122_0001_23_39_H_._HHH_b1_06980_0001_0000100002_0000001_0 (protein)
chain: SSSSDVEELLEEIEELLRRGDLEEAEKLLHEASELAFERNDFELFSAVAELTHLIARLEVSSSSS
B15: il2ra_site2_3nfp_sap_23_mot_HHH_b1_06431_000000233_0001_39_56_H_._HHH_b1_02296_af2_0001_0000200009_0000001_0_0001 (protein)
chain: SSSSDYEEEVRELLERVEELLENGNPEEAEKALARASHIAFRHNDSELFFEIAELAYRVFQSSSS
B16: il2ra_site1_2b5i_sap_12_mot_HHH_b1_06317_000000089_0001_24_40_H_._HHH_b1_04837_af2_0001_0000300014_0000001_0_0001_af2pred_0001_af2pred (protein)
chain: SSSDEIREIMKLLREAFRLLREGNPEEARKLAEEAEELVEEAKNPALKRIVELLKELIEQKSSSS
B17: il2ra_site1_1z92_sap_22_mot_HHH_b2_05734_000000004_0001_1_18_H_._8fa6976bf83f87873b50afdd12020151_0001_1_0001_0000300018_0000001_0_0001_af2pred_0001_af2pred_1_s … (protein)
chain: SSSSDEREKKSLELAVRIAVEIAGLSEEDEEKLEELLEELLERGVSFLEALRELDRVAAELSSSS
B18: il2ra_site2_2erj_sap_11_mot_HHH_b1_06697_000000025_0001_41_54_H_._HHH_b1_00902_0001_0000600018_0000001_0_0001 (protein)
chain: SSSSNEDLHELYKILVRLLRLVAEGDREELEELLKEAEKLAERLQSPNVEEIIELLKRKGSSSSS
B19: il2ra_site1_1z92_normal_mot_01209686ea234b34325f918445e6eade_0001_af2_000000144_0001_18_33_H_._5b5174569719974cf8d79a489bb4e86b_0001_af2_0001_0000400040_0000001 … (protein)
chain: GPEEVLEELKESGDPALELFVRLFEQMLRLGATPKAILHALKIAAERLGSPELERAIRLFEELER

What follows are binders tested against il2ra, P01589 (assay: yeast display titration).

Binder | apparent Kd
B1 | inactive: no binding seen
B2 | inactive: no binding seen
B3 | inactive: no binding seen
B4 | inactive: no binding seen
B5 | inactive: no binding seen
B6 | inactive: no binding seen
B7 | inactive: no binding seen
B8 | inactive: no binding seen
B9 | inactive: no binding seen
B10 | inactive: no binding seen
B11 | inactive: no binding seen
B12 | inactive: no binding seen
B13 | inactive: no binding seen
B14 | inactive: no binding seen
B15 | inactive: no binding seen
B16 | inactive: no binding seen
B17 | inactive: no binding seen
B18 | inactive: no binding seen
B19 | inactive: no binding seen

Given as tab-separated lines: entries from further up.
Binder	apparent Kd
B15	inactive: no binding seen
B16	inactive: no binding seen

From publication PMC10163288
